{"source": "PubChem BioAssay AID504804 – Drosophila RNAi Screening Center | 2011", "test": "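Fly genes whose loss lessens doxorubicin-driven cell death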 (primary screen)", "cells": "Drosophila Kc cells", "knock-down reagent": "long dsRNA against Drosophila genes, 0.5 µg dsRNA per well", "timing": "96 h (48 h knock-down, then 48 h drug)", "challenge": "doxorubicin 5 µg/ml for 48 h, added 48 h after dsRNA", "detection": "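Luminescent ATP counts per replicate, not normalised, reflecting viable cells after 48 h dsRNA knock-down followed by 48 h of 5 µg/ml doxorubicin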", "scale": "raw ATP luminescence: higher = more viable cells, protection from doxorubicin", "hit rule": "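z-score of 2 or more over plate mean in both duplicates, retained only when retests and separate dsRNAs confirm the protection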", "note": "In all, the deposit lists about 19,000 reagents; this is a random part of those with a known target gene and a result. In the full data, 47 (0.25%) got an active call. 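Signals are raw, not normalised; exact z-scores behind calls not deposited; actives needed confirmation, so some wells reaching 2 SD are inactive.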 The numbers tell different reagents against one gene apart."}
{"target gene": "CG7407", "reagent": 1, "raw ATP luminescence, replicate 1": 24700, "raw ATP luminescence, replicate 2": 26093, "activity call": "inactive"}
{"target gene": "CG43773", "reagent": 1, "raw ATP luminescence, replicate 1": 23607, "raw ATP luminescence, replicate 2": 32027, "activity call": "inactive"}
{"target gene": "CG43773", "reagent": 2, "raw ATP luminescence, replicate 1": 25643, "raw ATP luminescence, replicate 2": 29090, "activity call": "inactive"}
{"target gene": "Blm (Bloom syndrome helicase)", "reagent": 1, "raw ATP luminescence, replicate 1": 43317, "raw ATP luminescence, replicate 2": 34407, "activity call": "inactive"}
{"target gene": "CG31055", "reagent": 1, "raw ATP luminescence, replicate 1": 1.80e5, "raw ATP luminescence, replicate 2": 2.03e5, "activity call": "inactive"}
{"target gene": "NaCP60E (Na channel protein 60E)", "reagent": 1, "raw ATP luminescence, replicate 1": 87717, "raw ATP luminescence, replicate 2": 71260, "activity call": "inactive"}
{"target gene": "borr (borealin-related)", "reagent": 1, "raw ATP luminescence, replicate 1": 74627, "raw ATP luminescence, replicate 2": 55993, "activity call": "inactive"}
{"target gene": "CG7352", "reagent": 1, "raw ATP luminescence, replicate 1": 60237, "raw ATP luminescence, replicate 2": 50967, "activity call": "inactive"}
{"target gene": "sa (spermatocyte arrest)", "reagent": 1, "raw ATP luminescence, replicate 1": 66823, "raw ATP luminescence, replicate 2": 56573, "activity call": "inactive"}
{"target gene": "mthl3 (methuselah-like 3)", "reagent": 1, "raw ATP luminescence, replicate 1": 55990, "raw ATP luminescence, replicate 2": 68757, "activity call": "inactive"}
{"target gene": "COX7A (Cytochrome c oxidase subunit 7A)", "reagent": 1, "raw ATP luminescence, replicate 1": 55617, "raw ATP luminescence, replicate 2": 51557, "activity call": "inactive"}
{"target gene": "btd (buttonhead)", "reagent": 1, "raw ATP luminescence, replicate 1": 3.06e5, "raw ATP luminescence, replicate 2": 3.25e5, "activity call": "inactive"}
{"target gene": "CG12594", "reagent": 1, "raw ATP luminescence, replicate 1": 62573, "raw ATP luminescence, replicate 2": 57400, "activity call": "inactive"}
{"target gene": "CG7739", "reagent": 1, "raw ATP luminescence, replicate 1": 70257, "raw ATP luminescence, replicate 2": 79357, "activity call": "inactive"}
{"target gene": "escl", "reagent": 1, "raw ATP luminescence, replicate 1": 1.17e5, "raw ATP luminescence, replicate 2": 86317, "activity call": "inactive"}
{"target gene": "CG15635", "reagent": 1, "raw ATP luminescence, replicate 1": 33560, "raw ATP luminescence, replicate 2": 46523, "activity call": "inactive"}
{"target gene": "Oatp33Eb (Organic anion transporting polypeptide 33Eb)", "reagent": 1, "raw ATP luminescence, replicate 1": 60750, "raw ATP luminescence, replicate 2": 77767, "activity call": "inactive"}
{"target gene": "Trs33 (TRAPP subunit 33)", "reagent": 1, "raw ATP luminescence, replicate 1": 98340, "raw ATP luminescence, replicate 2": 86920, "activity call": "inactive"}
{"target gene": "CG14180 (retired record)", "reagent": 1, "raw ATP luminescence, replicate 1": 78260, "raw ATP luminescence, replicate 2": 65887, "activity call": "inactive"}
{"target gene": "CG32832", "reagent": 1, "raw ATP luminescence, replicate 1": 2.76e5, "raw ATP luminescence, replicate 2": 2.46e5, "activity call": "inactive"}
{"target gene": "CG6094", "reagent": 1, "raw ATP luminescence, replicate 1": 86587, "raw ATP luminescence, replicate 2": 74340, "activity call": "inactive"}
{"target gene": "Anp (Andropin)", "reagent": 1, "raw ATP luminescence, replicate 1": 31370, "raw ATP luminescence, replicate 2": 37230, "activity call": "inactive"}
{"target gene": "Elp3 (Elongator complex protein 3)", "reagent": 1, "raw ATP luminescence, replicate 1": 26263, "raw ATP luminescence, replicate 2": 26600, "activity call": "inactive"}
{"target gene": "CG12688 (retired record)", "reagent": 1, "raw ATP luminescence, replicate 1": 43020, "raw ATP luminescence, replicate 2": 44800, "activity call": "inactive"}
{"target gene": "CG12688 (retired record)", "reagent": 2, "raw ATP luminescence, replicate 1": 37170, "raw ATP luminescence, replicate 2": 49660, "activity call": "inactive"}
{"target gene": "Cdk9 (Cyclin-dependent kinase 9)", "reagent": 1, "raw ATP luminescence, replicate 1": 40670, "raw ATP luminescence, replicate 2": 61493, "activity call": "inactive"}
{"target gene": "APP-BP1 (beta-Amyloid precursor protein binding protein 1)", "reagent": 1, "raw ATP luminescence, replicate 1": 80727, "raw ATP luminescence, replicate 2": 1.62e5, "activity call": "inactive"}
{"target gene": "CG30447", "reagent": 1, "raw ATP luminescence, replicate 1": 1.82e5, "raw ATP luminescence, replicate 2": 1.51e5, "activity call": "inactive"}
{"target gene": "comm (commissureless)", "reagent": 1, "raw ATP luminescence, replicate 1": 70403, "raw ATP luminescence, replicate 2": 56703, "activity call": "inactive"}
{"target gene": "CG31913", "reagent": 1, "raw ATP luminescence, replicate 1": 2.70e5, "raw ATP luminescence, replicate 2": 2.70e5, "activity call": "inactive"}
{"target gene": "AspRS-m (Aspartyl-tRNA synthetase, mitochondrial)", "reagent": 1, "raw ATP luminescence, replicate 1": 76247, "raw ATP luminescence, replicate 2": 74440, "activity call": "inactive"}
{"target gene": "Fadd (Fas-associated death domain)", "reagent": 1, "raw ATP luminescence, replicate 1": 80660, "raw ATP luminescence, replicate 2": 78150, "activity call": "inactive"}
{"target gene": "SerRS (Seryl-tRNA synthetase)", "reagent": 1, "raw ATP luminescence, replicate 1": 97467, "raw ATP luminescence, replicate 2": 81393, "activity call": "inactive"}
{"target gene": "Enoph (Enolase-phosphatase)", "reagent": 1, "raw ATP luminescence, replicate 1": 63800, "raw ATP luminescence, replicate 2": 66707, "activity call": "inactive"}
{"target gene": "Pgi (Phosphoglucose isomerase)", "reagent": 1, "raw ATP luminescence, replicate 1": 61153, "raw ATP luminescence, replicate 2": 57063, "activity call": "inactive"}
{"target gene": "scu (scully)", "reagent": 1, "raw ATP luminescence, replicate 1": 3.45e5, "raw ATP luminescence, replicate 2": 3.52e5, "activity call": "inactive"}
